Results from publication PMC6120190, “Identification of two distinct peptide-binding pockets in the SH3 domain of human mixed-lineage kinase 3” (The Journal of Biological Chemistry, 2018).
No end group written: not given here.

Test system: SH3 domain of MLK3
Assay: X-ray crystal structure of MLK3 SH3-peptide fusion
Parameters: species or system human
Settings: for binding site on the SH3 domain of MLK3: crystal structures: MIP 1.2 Å (PDB 5K26), NS5A APPIPPPR 1.5 Å (PDB 6AQB)

| Molecule | r.m.s.d. of SH3 structure upon binding (MIP-bound vs apo MLK3 SH3, over 40 residues) | binding site on the SH3 domain of MLK3 |
| --- | --- | --- |
| CC[C@H](C)[C@H](NC(=O)[C@H](C)N)C(=O)N[C@@H](CCCNC(=N)N)C(=O)N[C@H](C(=O)N[C@@H](CC(N)=O)C(=O)N1CCC[C@H]1C(=O)N[C@@H](CC(N)=O)C(=O)NCC(=O)N[C@H](C(=O)N[C@@H](Cc1c[nH]c2ccccc12)C(=O)N[C@@H](CO)C(=O)N[C@@H](CCCNC(=N)N)C(=O)N[C@@H](CCC(N)=O)C(=O)N[C@@H](C)C(=O)N[C@@H](CCC(=O)O)C(=O)N[C@H](C(=O)N[C@H](C(=O)N[C@@H](CCC(=O)O)C(=O)N[C@@H](CO)C(=O)O)C(C)C)[C@@H](C)O)[C@@H](C)O)[C@@H](C)CC [MIP] | 0.41 | binds in a pocket formed between the n-Src loop and β-strands 2–4 |
| KKAPTPPPRRRRGGGK [NS5A peptide, reference compound] | – | interacts with the canonical polyproline-binding site |
